Reference: PubChem BioAssay AID2685 (National Center for Advancing Translational Sciences (NCATS), 2010)
This is one part of the list. Shown are side measurements of this screen, not its main read-out; they come without a call. The list favours compounds with an active or inconclusive main result. Words in brackets tell the shape of the fitted curve; partial curves, single points and poor fits give uncertain potencies.

Test: qHTS Assay for Lipid Storage Modulators in Drosophila S3 Cells;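 on cell number change: cells counted by Cell Tracker Red CMTPX staining in the red channel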
Settings: BODIPY lipid droplet fluorescence, 18-24 h; for cell number change: measured here: cell count max response, cells fed with added oleic acid
Procedure, shortened: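 Drosophila S3 cells got compounds at several concentrations plus oleic acid (400 uM solution). Laser-scanning cytometry with 488 nm excitation read lipid droplets at 500-530 nm and cells at 575-640 nm. Percent activity was relative to 20 uM Triacsin C.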

[1] = measured here: lipid fluorescence (Fed channel) AC50, cells fed with added oleic acid
[2] = measured here: cell number channel AC50, cells fed with added oleic acid

Which cell number change does the source give for CCCCc1nnc(NC(=O)Cc2ccc(S(=O)(=O)N3CCOCC3)s2)s1 here?
Its cell number change is -6.31%.

What about the AC50 [1] of the same molecule?
Its AC50 is 2910 nM [rising, partial curve].

Which results are given for CC(C)(C)c1ccc(C(=O)OCC(=O)NCc2ccco2)cc1?
cell number change: -2.04%; AC50 [1]: 23100 nM [falling, single point]

Which results are given for CCOCc1c(C(=O)OCC(=O)/C(C#N)=C(\C)N)oc2ccccc12?
cell number change: -25.4%; AC50 [1]: 10300 nM [falling, partial curve]

What does the source list for Cc1cnc(C(=O)Nc2ccc(C)c(S(=O)(=O)N3CCCCCC3)c2)cn1?
cell number change: 0.402%; AC50 [2]: 1840 nM [rising, partial curve]

With COc1ccc(C2=NN3C(C2)c2ccccc2OC32C(=O)N(C)c3ccccc32)cc1 (stereo unspecified) as the molecule, how does the AC50 [1] read?
Its AC50 is 820 nM [rising, single point].

What does the source list for COC(=O)c1ccccc1NC(=O)Nc1cc(C(C)(C)C)on1?
cell number change: 14.4%; AC50 [2]: 5.8 nM [rising, full curve, poor fit]

Which results are given for O=C(c1ccccc1)N1CCCC(C(=O)N2CCCCCC2)C1 (stereo unspecified)?
cell number change: 4.95%; AC50 [2]: 4610 nM [falling, single point]

With Cc1cc(S(=O)(=O)N2CCOCC2)ccc1OCC(=O)Nc1ccc(F)cc1 as the molecule, how does the cell number change read?
Its cell number change is 4.58%.

And the AC50 [1]?
Its AC50 is 1300 nM [falling, single point].

Which AC50 [2] does the source give for Cc1noc(C)c1C(=O)NCCc1c(C)[nH]c2ccccc12 here?
The AC50 was 6510 nM [rising, single point].

Which results are given for CN1CCN(CC(=O)Nc2cc(N(C)C)nc3ccccc23)CC1?
cell number change: -11.8%; AC50 [2]: 461 nM [rising, full curve, poor fit]; AC50 [1]: 1300 nM [rising, full curve, poor fit]

For COc1ccc(NCc2nnc(SCC(=O)Nc3ccccc3)n2C)cc1, which cell number change is on record?
Its cell number change is -0.284%.

And the AC50 [2]?
Its AC50 is 231 nM [falling, full curve, poor fit].

And the AC50 [1]?
Its AC50 is 116 nM [falling, full curve, poor fit].

With COc1ccc(C)cc1-n1nnnc1SCC(=O)NC1CC1 as the molecule, how does the cell number change read?
The cell number change was 12.8%.

And the AC50 [1]?
The AC50 was 580 nM [rising, single point].

For CC1(C)NC(=O)N(CC(O)CN(c2cccc([N+](=O)[O-])c2)S(=O)(=O)c2ccccc2)C1=O (stereo unspecified), which cell number change is on record?
The cell number change was 19.2%.

What about the AC50 [1] of the same molecule?
Its AC50 is 2910 nM [rising, partial curve].

With Cc1nnc(NC(=O)CSc2nc3[nH]ncc3c(=O)[nH]2)s1 as the molecule, how does the cell number change read?
The cell number change was -13.4%.

What about the AC50 [1] of the same molecule?
The AC50 was 8200 nM [falling, partial curve].

What does the source list for O=C1CCc2cc(S(=O)(=O)Nc3ccc(F)cc3)ccc2N1?
cell number change: -19.6%; AC50 [1]: 2910 nM [falling, single point]

With CC(=O)Nc1ccc(NC(=O)c2cc(C3CC3)nc3c2cnn3C(C)C)cc1 as the molecule, how does the cell number change read?
The cell number change was 22.1%.

With COc1ccccc1N1CCN(C(=O)CSc2nc3ncnc(N)c3[nH]2)CC1 as the molecule, how does the cell number change read?
The cell number change was 13.5%.

And the AC50 [1]?
Its AC50 is 16400 nM [rising, partial curve].

Which cell number change does the source give for CCOC(=O)C1CCN(C(=O)c2ccc3nc(-c4ccc(OC)cc4)c(-c4ccc(OC)cc4)nc3c2)CC1 here?
The cell number change was -23.1%.

What does the source list for COC(=O)CC1C(=O)NCCN1C(=O)c1sc2ccccc2c1Cl (stereo unspecified)?
cell number change: -6.88%; AC50 [1]: 130 nM [falling, full curve, poor fit]

Which cell number change does the source give for O=C(COC(=O)c1ccc(O)cc1O)NC12CC3CC(CC(C3)C1)C2 here?
Its cell number change is -54.1%.

What about the AC50 [2] of the same molecule?
Its AC50 is 25900 nM [falling, partial curve].

And the AC50 [1]?
Its AC50 is 23100 nM [falling, partial curve, poor fit].

For O=C(O)CCC(=O)N1CCc2c([nH]c3ccccc23)C1C(F)(F)F (stereo unspecified), which cell number change is on record?
Its cell number change is 9.08%.

And the AC50 [1]?
The AC50 was 5.17 nM [rising, full curve, poor fit].

With CC(C)CN(C(=O)CSc1nnc(-c2cccs2)n1N)c1c(N)n(Cc2ccccc2)c(=O)[nH]c1=O as the molecule, how does the AC50 [1] read?
The AC50 was 20600 nM [rising, single point].

Which AC50 [1] does the source give for CN(CC(=O)O/N=C(\N)c1ccc([N+](=O)[O-])cc1)S(=O)(=O)c1ccccc1 here?
The AC50 was 820 nM [rising, single point].

Which cell number change does the source give for CC(C)CCNC(=O)NC(=O)CSc1ncccn1 here?
The cell number change was 74.6%.

And the AC50 [2]?
The AC50 was 10300 nM [rising, partial curve].

Which results are given for Cc1cc(C(=O)OCC(=O)c2c(N)n(C)c(=O)n(C)c2=O)c(C)o1?
cell number change: 26.3%; AC50 [1]: 731 nM [falling, single point]

For COc1ccc(NC(=O)CN(Cc2ccccc2)S(C)(=O)=O)c(OC)c1, which AC50 [2] is on record?
The AC50 was 651 nM [rising, single point].

What does the source list for Cc1ccc(NC(=O)COC(=O)CCc2nc3ccccc3c(=O)[nH]2)cc1Cl?
cell number change: 4.23%; AC50 [2]: 731 nM [falling, full curve, poor fit]; AC50 [1]: 517 nM [falling, full curve]

What does the source list for CCCNC(=O)OC[C@H]1O[C@H](CCO/N=C/[C@@H](OC)[C@H](C)/C=C/CC(=O)OC)C=C[C@@H]1Oc1ccc(OC)cc1?
cell number change: 2%; AC50 [1]: 2060 nM [rising, partial curve]

With Cc1nc(SCC(=O)NC2CCS(=O)(=O)C2)c(C#N)c(C)c1C (stereo unspecified) as the molecule, how does the cell number change read?
Its cell number change is 3.74%.

And the AC50 [2]?
The AC50 was 3260 nM [rising, partial curve, poor fit].

And the AC50 [1]?
Its AC50 is 2060 nM [rising, partial curve, poor fit].
